Measurements reported in PubChem BioAssay AID504764 (Drosophila RNAi Screening Center, 2011)
In all, the deposit lists about 22,000 reagents; this is an unselected part of those that have a named target and a result. Of all reagents, 403 (1.9%) are marked active. 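Unnormalised raw counts per well; ratio z-scores behind the hit calls and whether each hit raises or lowers signal are not deposited.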 A plus sign joins genes that one reagent is predicted to hit. Not stated in the record: the amount of reagent.

Purpose: 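Genome-wide screen for regulators of Notch-driven gene expression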 (primary screen)
Cell system: Drosophila Kc167 cells
Knock-down reagent: long dsRNA against Drosophila genes
Time to read-out: about 5 days (4 days dsRNA, then 24 h after transfection)
Treatment: transfection of constitutively active membrane-tethered Notch lacking the extracellular domain, read 24 h later
Measurement: 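Firefly luciferase from an E(spl)m3 reporter with active Notch, plus control-promoter and uninduced reporter wells for normalisation; unnormalised counts, duplicate wells a and b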
Scale: induced reporter light, run 1, well a and induced reporter light, run 1, well b: higher = more light from the Notch target reporter with active Notch; control promoter light, run 1, well a and control promoter light, run 1, well b: higher = more light from the viral control promoter (cell number, transfection, viability); uninduced reporter light, run 1, well a: higher = more light from the Notch target reporter without active Notch
Hit rule: 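Wells with low control signal or poorly matching duplicates excluded; duplicates averaged; per source plate, z beyond ±2 for induced/control log2 ratio or beyond ±1.8 for induced/uninduced marks a hit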
Calls: active = modifier hit (raised or lowered Notch signal); inactive = not a hit

| predicted target | amplicon | induced reporter light, run 1, well a | induced reporter light, run 1, well b | control promoter light, run 1, well a | control promoter light, run 1, well b | uninduced reporter light, run 1, well a | Outcome |
| --- | --- | --- | --- | --- | --- | --- | --- |
| CG15803 | DRSC15121 | 2.05e5 | 1.64e5 | 2.00e5 | 1.80e5 | 13720 | inactive |
| Lamtor4 (Late endosomal/lysosomal adaptor, MAPK and MTOR activator 4) | DRSC08436 | 1.21e5 | 1.22e5 | 1.51e5 | 1.64e5 | 5400 | inactive |
| jagn (jagunal) | DRSC12152 | 1.75e5 | 1.13e5 | 84080 | 71035 | 9650 | inactive |
| AIF (Apoptosis inducing factor) | DRSC00696 | 1.40e5 | 2.14e5 | 2.68e5 | 2.78e5 | 17832 | active |
| CG14495 | DRSC06466 | 1.49e5 | 1.29e5 | 1.86e5 | 1.45e5 | 9165 | inactive |
| CG5612 | DRSC15844 | 1.61e5 | 1.64e5 | 2.27e5 | 2.06e5 | 14170 | inactive |
| tn (thin) | DRSC05768 | 37270 | 43995 | 51020 | 37685 | 4810 | inactive |
| tn (thin) | DRSC06532 | 90760 | 97940 | 1.64e5 | 2.42e5 | 12590 | active |
| CG42557 + CG42558 | DRSC13963 | 1.39e5 | 1.47e5 | 1.32e5 | 1.43e5 | 10728 | inactive |
| CG42557 + CG42558 | DRSC16329 | 1.53e5 | 1.74e5 | 1.86e5 | 1.66e5 | 9285 | inactive |
| CG34367 | DRSC02238 | 1.16e5 | 1.21e5 | 70530 | 96485 | 18105 | inactive |
| CG34367 | DRSC02850 | 1.04e5 | 1.31e5 | 68230 | 93490 | 15065 | inactive |
| Sk2 (Sphingosine kinase 2) | DRSC08556 | 60975 | 99120 | 98670 | 56465 | 13180 | active |
| Or45a (Odorant receptor 45a) | DRSC07487 | 1.78e5 | 1.97e5 | 2.16e5 | 1.81e5 | 16785 | inactive |
| rictor (rapamycin-insensitive companion of Tor) | DRSC20071 | 1.27e5 | 1.09e5 | 1.33e5 | 1.44e5 | 14775 | inactive |
| CG17202 | DRSC15194 | 1.04e5 | 1.04e5 | 1.20e5 | 81205 | 6835 | inactive |
| CG14342 | DRSC00372 | 1.26e5 | 1.18e5 | 90075 | 54080 | 9095 | inactive |
| Pabp2 | DRSC07501 | 22305 | 28225 | 36355 | 38135 | 2235 | inactive |
| CG5846 | DRSC02904 | 2.18e5 | 2.24e5 | 2.13e5 | 1.96e5 | 15625 | inactive |
| CG34126 | DRSC02726 | 1.48e5 | 1.41e5 | 1.78e5 | 1.75e5 | 10775 | inactive |
| raskol | DRSC19202 | 99360 | 85370 | 82690 | 1.09e5 | 6345 | inactive |
| raskol | DRSC19731 | 72625 | 85760 | 84005 | 84160 | 11155 | inactive |
| raskol | DRSC19964 | 94110 | 64370 | 83175 | 87725 | 9550 | inactive |
| raskol | DRSC19967 | 2710 | 2370 | 3065 | 2815 | 2200 | inactive |
| CG32407 | DRSC09789 | 3.37e5 | 3.24e5 | 3.83e5 | 3.07e5 | 11682 | inactive |
| Yif1 (Yip1-interacting factor 1) | DRSC15817 | 1.18e5 | 1.20e5 | 1.65e5 | 1.44e5 | 7888 | inactive |
| GC (gamma-glutamyl carboxylase) | DRSC08396 | 1.09e5 | 95685 | 1.43e5 | 1.72e5 | 7060 | inactive |
| Gr68a (Gustatory receptor 68a) | DRSC10803 | 2.38e5 | 2.45e5 | 3.62e5 | 2.63e5 | 12688 | inactive |
| CG14314 | DRSC14793 | 1.62e5 | 1.52e5 | 1.88e5 | 1.99e5 | 11105 | inactive |
| Mnt | DRSC17894 | 1.00e5 | 1.19e5 | 1.24e5 | 1.14e5 | 10975 | inactive |
| Mnt | DRSC18480 | 1.69e5 | 1.56e5 | 3.20e5 | 2.70e5 | 12282 | inactive |
| CG1575 | DRSC18069 | 1.97e5 | 1.97e5 | 1.86e5 | 2.20e5 | 15400 | inactive |
| CG14609 | DRSC12553 | 1.21e5 | 1.30e5 | 1.33e5 | 1.07e5 | 11420 | inactive |
| Spn28Dc (Serpin 28Dc) | DRSC03029 | 1.11e5 | 1.23e5 | 66430 | 1.06e5 | 17530 | inactive |
| CG34133 | DRSC16319 | 90990 | 1.00e5 | 1.05e5 | 88485 | 6675 | inactive |
| twr (twisted bristles roughened eye) | DRSC12491 | 45035 | 43310 | 37175 | 38420 | 3370 | inactive |
| CG7011 | DRSC09347 | 1.63e5 | 1.52e5 | 2.14e5 | 2.67e5 | 16980 | inactive |
| CG12075 | DRSC17801 | 1.88e5 | 1.70e5 | 1.70e5 | 1.67e5 | 13355 | inactive |
| CG31360 | DRSC13255 | 74520 | 50670 | 58465 | 69195 | 7460 | inactive |
| Gr98a (Gustatory receptor 98a) | DRSC14719 | 2.03e5 | 1.84e5 | 2.64e5 | 2.75e5 | 13510 | inactive |
| Coa7 (Cytochrome c oxidase assembly factor 7) | DRSC20967 | 91050 | 1.00e5 | 1.16e5 | 1.20e5 | 9655 | inactive |
| CG32073 | DRSC09087 | 1.92e5 | 1.90e5 | 1.86e5 | 1.69e5 | 14550 | inactive |
| CG32073 | DRSC09894 | 1.79e5 | 1.35e5 | 1.84e5 | 1.55e5 | 8105 | inactive |
| CG8441 | DRSC07180 | 92455 | 98465 | 2.00e5 | 2.31e5 | 9810 | inactive |
| BCAS2 | DRSC15693 | 1.80e5 | 1.83e5 | 2.14e5 | 2.04e5 | 13965 | inactive |
| Blimp-1 | DRSC10496 | 2.29e5 | 2.62e5 | 2.83e5 | 2.08e5 | 12435 | inactive |
| CG8501 | DRSC07198 | 84960 | 90735 | 77755 | 66880 | 7785 | inactive |
| TwdlE (TweedleE) | DRSC02392 | 1.62e5 | 1.63e5 | 99900 | 1.16e5 | 22315 | inactive |
| CG15579 | DRSC18067 | 1.15e5 | 1.36e5 | 2.71e5 | 2.14e5 | 8630 | inactive |
| CG14459 | DRSC11719 | 6365 | 4980 | 8505 | 8205 | 2488 | inactive |

Entries above whose target name begins with T or t (4):
| predicted target | amplicon | induced reporter light, run 1, well a | induced reporter light, run 1, well b | control promoter light, run 1, well a | control promoter light, run 1, well b | uninduced reporter light, run 1, well a | Outcome |
| --- | --- | --- | --- | --- | --- | --- | --- |
| tn (thin) | DRSC05768 | 37270 | 43995 | 51020 | 37685 | 4810 | inactive |
| tn (thin) | DRSC06532 | 90760 | 97940 | 1.64e5 | 2.42e5 | 12590 | active |
| twr (twisted bristles roughened eye) | DRSC12491 | 45035 | 43310 | 37175 | 38420 | 3370 | inactive |
| TwdlE (TweedleE) | DRSC02392 | 1.62e5 | 1.63e5 | 99900 | 1.16e5 | 22315 | inactive |
